From patent publication US20040005601A1, “Methods for targeting quadruplex DNA” (priority 2002, published 2004)
At least one structure is not confirmed: it was looked up by name or label, or the drawing left a doubt.

Tests used:
Type in all cases: biochemical
CMYC quadruplex = assay: Stabilization of CMYC quadruplex structure (polymerase arrest / chemical footprinting)
Source text: (§1) Nucleic acids in a chair conformation often have similar but not identical structures when compared to one another and differences can manifest in loop size and nucleotide sequence, quadruplex geometry, quadruplex stability, the number of alternative chair structures for a given nucleotide sequence, and chemical reactivity, and binding of other molecules. Polymerase arrest assays and chemical footprinting studies applied to the CMYC chair quadruplex structure as described hereafter also were applied to nucleotide sequences upstream of the PDGFA and RET genes. It was determined that the NHE regions 5′ of the RET and PDGFA genes formed chair quadruplex structures that regulated transcription. FIG. 6A depicts a generalized quadruplex chair structure formed in the CMYC, PDGFA, and RET regulatory regions. In this chair structure, CMYC and RET have two stable tetrads and PDGFA has three stable tetrads. The N1 loop for CMYC is TG, for RET is GCG, and for PDGFA is CG. The N2 loop for CMYC is GAG, for RET is GCG, and for PDGFA is GCG. The N3 loop for CMYC is TG, for RET is GCG, and for PDGFA is CG (form A) or AG (form B). The different forms of the PDGFA quadruplex are depicted in FIG. 6C and the RET quadruplex structure is depicted in FIG. 6B. […]

RET quadruplex = assay: Stabilization of RET quadruplex structure (polymerase arrest / chemical footprinting)
Source text: as §1

PDGFA quadruplex = assay: Stabilization of PDGFA quadruplex structure (polymerase arrest / chemical footprinting)
Source text: as §1

Compound: Cc1oc2nc1-c1nc(co1)-c1nc(co1)-c1nc(co1)-c1nc(co1)-c1nc(co1)C1=NC(CS1)c1nc-2c(C)o1 (stereo not shown) [telomestatin]
- stabilization of CMYC quadruplex structure (CMYC quadruplex): stabilized
- stabilization of RET quadruplex structure (RET quadruplex): stabilized
- relative effect in stabilization of the RET chair quadruplex structure (RET quadruplex; telomestatin compared with TMPyP4): much more effective than TMPyP4
- stabilization of PDGFA quadruplex structure (PDGFA quadruplex): stabilized
